Experimental findings from paper PMC12440825 are described below.

The chains behind the UniProt entries cited, without tags or fusion partners. Where a name states a change or a piece, a line headed by the entry shows the natural chain unless it says otherwise.
UniProt P32867: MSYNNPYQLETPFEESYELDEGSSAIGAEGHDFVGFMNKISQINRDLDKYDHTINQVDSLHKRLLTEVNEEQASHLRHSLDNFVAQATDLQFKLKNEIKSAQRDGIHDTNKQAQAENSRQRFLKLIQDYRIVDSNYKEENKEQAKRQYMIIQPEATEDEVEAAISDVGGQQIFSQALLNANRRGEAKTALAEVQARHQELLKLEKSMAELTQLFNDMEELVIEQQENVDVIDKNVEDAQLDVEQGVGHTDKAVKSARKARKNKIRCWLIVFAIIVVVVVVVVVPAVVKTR
UniProt P31109: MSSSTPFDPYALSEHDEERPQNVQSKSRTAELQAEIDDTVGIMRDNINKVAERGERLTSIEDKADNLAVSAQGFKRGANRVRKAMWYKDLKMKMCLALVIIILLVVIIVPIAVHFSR

The target of the experiment is Sso1 tagged with mVenus (S. cerevisiae) (UniProt P32867). The experiment can be described thus: FRET or BRET; bulk FRET in the assembled yeast SNARE complex between mTurq on Snc1 and mVenus on Sso1; excitation 434 nm; plate reader, 384-well format; both purified.

These are yes or no findings as the source states them, for the method shown. Binding can be weak; no strength is given.

In the case of “Snc1 tagged with mTurq (from UniProt P31109)”, the binding result is listed as “binds”.
